For at least one compound, name, drawing or mass did not settle the structure.
Experiments:
[1] = 1,3-dipolar cycloaddition kinetics by HPLC; assay type: physicochemical; conditions: azidoacetamide over diazoacetamide
Method: The rates of reaction for the 1,3-dipolar cycloaddition of dipoles N-benzylazidoacetamide and N-benzyldiazoacetamide with compound 3 in both aprotic (CH2Cl2) and protic solvents (MeOH and PBS containing 2% v/v DMSO) were measured. The depletion of compound 3by using HPLC and second-order rate constants were calculated from the slope of a plot of [compound 3]^−1 versus time. As a benchmark, the rate of the reaction of DIBO with each dipole was also measured.
(§1) Kinetics General Method A. Stock solutions at the specified concentrations in the specified solvents were prepared for each dipole and dipolarophile. Aliquots (0.5 mL) of dipole and dipolarophile were mixed, and reactions were monitored by HPLC with aliquots injected at the timepoints shown in the kinetic traces below. Each reaction was carried out in triplicate. The concentration of remaining dipolarophile was obtained from its corresponding peak in the chromatogram monitored at 280 nm. Second-order rate constants were calculated from the slope of the plot of [dipolarophile]^−1 versus time.
Reaction of N-benzylazidoacetamide with DIBO in CH2Cl2. Kinetics General Method A was followed using stock solutions at 2 mM and resulting in final reaction concentrations of 1 mM N-benzylazidoacetamide and 1 mM DIBO.
Reaction of N-benzylazidoacetamide with compound 3 in CH2Cl2. […]

[2] = 1,3-dipolar cycloaddition kinetics by HPLC; assay type: physicochemical; conditions: CH2Cl2 (FIG. 1)
Method: To assess the effect of the putative hydrogen bond, the reactivity of compound 3 and DIBO with ethyl diazoacetate, which lacks a hydrogen bond donor, was tested. The rate constant for the reaction of compound 3 with ethyl diazoacetate was nearly 200-fold lower than that with N-benzylazidoacetamide. This decrease is substantially greater than the 4-fold decrease in rate constant for the reaction of these same dipoles with DIBO (FIG. 1).
as §1
Reaction of ethyl diazoacetate with compound 3 in CH2Cl2. Kinetics General Method A was followed using stock solutions at 400 μM and resulting in final reaction concentrations of 200 μM ethyl diazoacetate and 200 μM compound 3.

Compound: C1#Cc2ccccc2CCc2ccccc21 [DIBO, Dibenzocyclooctyne, reference compound]
- azidoacetamide reacts faster than diazoacetamide (rate ratio) [1]: 2- to 3 fold
- decrease in rate constant with ethyl diazoacetate relative to N-benzylazidoacetamide [2]: 4 fold
